Among all 390,000 compounds or so, about 610 (0.16%) were called active. This list was built around the results that the source calls inconclusive (neither active nor inactive); the mix of calls is not that of the screen. Calls come from the whole dose curve; as a rule, active = well fitted inhibition curve with a large enough effect; inconclusive = small, poorly fitted or top-dose-only effect, or effect the other way, or another doubt; inactive = no such curve, though single readings can be large or run the other way. Potencies of inconclusive entries are doubtful fits and often do not repeat.
Assay: Nrf2 qHTS screen for inhibitors: counterscreen for cytotoxicity
Details: A549 ARE-Fluc cells, CellTiter-Fluor viability, 18-24 h; series mostly up to 46 µM
Outline: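 A549 ARE-Fluc cells in 5% FBS OPTI-MEM, 5000 cells/well, rested 2 h then exposed to compounds in concentration-response for 18-24 h at 37 °C. Viability by CellTiter-Fluor fluorescence (Ex 405/Em 525) after 30 min; luciferase luminescence (BugLite, 15 min, RT) read afterwards.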
Potency is the fitted concentration of half-maximal effect.

| SMILES | Potency |
| --- | --- |
| COC(=O)C(C(=O)OC)=C(/C=C/C=C/N(C)C)N(C)C | inconclusive: 23.1 µM [falling, partial curve] |
| CCN1CCN(Cc2cccc(Oc3ccc(Cl)cc3)c2)CC1 | inconclusive: 20.6 µM [falling, single point] |
| CCc1c(C)nc2ncnn2c1N1CCC(C(=O)Nc2cccc(C(C)=O)c2)CC1 | inactive |
| O=[S+]([O-])(c1ccc2nsnc2c1)N1CCN([S+](=O)([O-])c2c(F)cccc2F)CC1 | inactive |
| O=C(CCc1ccccc1)NC(c1cccs1)c1cc(Cl)c2cccnc2c1O (stereo not drawn) | inconclusive: 23.1 µM [falling, single point] |
| O=[N+]([O-])c1ccc(/C=N/n2cnc3ccccc32)s1 | inconclusive: 29.1 µM [falling, single point] |
| Cc1cc(Nc2ccc3c(c2)OCCO3)c2cccc(C)c2n1 | inconclusive: 20.6 µM [falling, partial curve, poor fit] |
| Cc1ccc(C(=O)n2nc(C)c(S(=O)(=O)N3CCOCC3)c2C)cc1C | inactive |
| NCCc1nnc(SCc2c(Cl)cccc2Cl)o1 | inactive |
| CN1CCN(C2=C(Cl)C(=O)N(c3ccc(Cl)c(Cl)c3)C2=O)CC1 | inactive |
| N=c1ccn(Cc2ccc(Cl)cc2)cc1 | inconclusive: 1.16 µM [falling, full curve] |
| COC(=O)Cc1c(C)nc2nc(-c3ccc(C)cc3)[nH]n2c1=O | inactive |
| Cc1nn(-c2ccc(F)cc2)c(C)c1NS(=O)(=O)c1ccc2ccccc2c1 | inconclusive: 18.4 µM [falling, single point] |
| COc1ccc(/C=C2/CSC/C(=C/c3ccc(OC)c(OC)c3)C2=O)cc1OC | inconclusive: 8.2 µM [falling, partial curve] |
| O=C(c1ccc(Cl)c(S(=O)(=O)N2CCc3ccccc32)c1)N1CCN(c2ccccc2O)CC1 | inconclusive: 32.6 µM [falling, partial curve, poor fit] |
| CC(C)c1ccc(N2C(=O)N(Cc3ccccc3Cl)c3ccccc3S2(=O)=O)cc1 | inconclusive: 8.2 µM [activator, partial curve] |
| COc1ccc(C2=NOC(COc3ccc4c(C)cc(=O)oc4c3)C2)c(OC)c1 (stereo not drawn) | inconclusive: 8.2 µM [falling, partial curve, poor fit] |
| CC(C)CNC(=O)CSc1nc2scc(-c3ccccc3)c2c(=O)[nH]1 | inactive |
| COCCCN1C(=O)C(O)=C(C(=O)c2ccco2)C1c1ccccc1 (stereo not drawn) | inconclusive: 9.2 µM [falling, partial curve, poor fit] |
| O=C(c1ccc2c(c1)OCO2)N(Cc1cccs1)C1(C(=O)NC2CCCCC2)CCCCC1 | inconclusive: 25.9 µM [falling, partial curve, poor fit] |
| COc1cc(Nc2ccccc2Cl)c([N+](=O)[O-])nc1[N+](=O)[O-] | inconclusive: 14.6 µM [falling, partial curve] |
| CN1CCN(c2ccccc2NC(=O)c2ccc(-c3cccc(Cl)c3)o2)CC1 | inconclusive: 25.9 µM [falling, partial curve, poor fit] |

An excerpt from above in order of molecular weight, falling.

| SMILES | Potency |
| --- | --- |
| O=C(c1ccc2c(c1)OCO2)N(Cc1cccs1)C1(C(=O)NC2CCCCC2)CCCCC1 | inconclusive: 25.9 µM [falling, partial curve, poor fit] |
| O=[S+]([O-])(c1ccc2nsnc2c1)N1CCN([S+](=O)([O-])c2c(F)cccc2F)CC1 | inactive |
| COC(=O)C(C(=O)OC)=C(/C=C/C=C/N(C)C)N(C)C | inconclusive: 23.1 µM [falling, partial curve] |

Next part.

| SMILES | Potency |
| --- | --- |
| CCn1c(=O)c(C(=O)NNS(=O)(=O)c2ccc(Cl)cc2)c(O)c2ccccc21 | inconclusive: 25.9 µM [falling, partial curve, poor fit] |
| Cc1ccc(NC(=O)CN2CCN(S(=O)(=O)c3cccs3)CC2)cc1S(=O)(=O)N(C)C | inactive |
| CCCc1cc(C(=O)N2CCCC(C(=O)c3cc(C)c(OC)c(C)c3)C2)n(C)n1 (stereo not drawn) | inactive |
| O=S(=O)(c1ccccc1S(=O)(=O)N1CCCCC1)N1CCCCC1 | inconclusive: 1.3 µM [falling, full curve, poor fit] |
| CCN1CCN(c2cc(C)c3cc(NC(=O)c4ccc5c(c4)OCO5)ccc3n2)CC1 | inconclusive: 25.9 µM [falling, single point] |
| Cc1ccc(-c2nnc(CSc3nnc(COc4cccc5ccccc45)n3-c3ccccc3)o2)cc1 | inconclusive: 20.6 µM [falling, partial curve, poor fit] |
| CCC(C)OC(=O)C1C(c2ccccc2)C(C(=O)O)C1c1ccccc1 (stereo not drawn) | inconclusive: 2.06 µM [falling, partial curve, poor fit] |
| O=C(/C=C/c1cccc([N+](=O)[O-])c1)NCCSCc1ccc(Cl)cc1Cl | inactive |
| Cc1c(C)n(C)c2ccc(C(=O)NCCCN3CCOCC3)cc12 | inconclusive: 11.6 µM [activator, partial curve, poor fit] |
| O=C(CSc1ccccc1)NCc1cccnc1 | inconclusive: 0.651 µM [activator, partial curve, poor fit] |
| CSc1ccc(NC(=O)CC(C)=O)cc1 | inactive |
| CCN(c1ccccc1)S(=O)(=O)c1ccc(Cl)c(NC(=O)Nc2ccc(Cl)cc2C#N)c1 | inconclusive: 29.1 µM [falling, partial curve, poor fit] |
| O=C(c1ccc(S(=O)(=O)NCc2ccco2)cc1)N1CCN(Cc2ccccc2F)CC1 | inconclusive: 32.6 µM [falling, partial curve, poor fit] |
| CCOC(=O)C(=NCC1CCCO1)NNc1ccccc1Cl (stereo not drawn) | inactive |
| COc1cc(C2CC(c3cccnc3)=NN2c2ccc(F)cc2)cc(OC)c1OC (stereo not drawn) | inconclusive: 20.6 µM [activator, partial curve] |
| Cc1ccc(SCc2ccc(C(=O)Nc3cccnc3)cc2)cc1 | inactive |
| CC1(C)CC(=O)c2sc(N3CCCCC3)nc2C1 | inactive |
| Cc1cccc(C(=O)Nc2c(C(=O)NCc3ccc(Cl)cc3)sc3nc(C)cc(C)c23)c1 | inconclusive: 23.1 µM [falling, single point] |
| COc1ccc(OC)c(CCNC(=O)c2cnn(-c3ccccc3Cl)c2C2CCN(C(=O)OC(C)(C)C)CC2)c1 | inconclusive: 32.6 µM [falling, partial curve, poor fit] |
| COc1ccccc1NS(=O)(=O)c1cc(NC(=O)c2cccnc2)ccc1N1CCCCC1 | inactive |
| CCn1cc(C(=O)NCc2ccc3c(c2)OCO3)c(=O)c2cc(F)c(N3CCN(C(=O)c4ccco4)CC3)cc21 | inconclusive: 14.6 µM [falling, partial curve] |
